In PubChem BioAssay AID504842 (National Center for Advancing Translational Sciences (NCATS), 2011):
Screen size: about 330,000 compounds; about 100 (0.03%) were called active. The shares of active, inactive and inconclusive entries below differ from those in the screen. Calls come from the whole dose curve; as a rule, active = well fitted inhibition curve with a large enough effect; inconclusive = small, poorly fitted or top-dose-only effect; inactive = flat fitted curve, though single readings scatter. Where the call is inconclusive, the potency comes from a doubtful curve fit.

tested on: Chaperonin Mm-Cpn (Methanococcus maripaludis); experiment: Inhibitors of TCP-1 ring complex (TRiC) of Methanococcus maripaludis (MmCpn): qHTS; conditions: purified Mm-Cpn ATPase, ADP Transcreener TR-FRET; note: nearly all actives have a fitted effect of over 80% in size;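 for potency: enzyme at 25 nM with ATP substrate at 10 µM during the reaction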
In short: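 Compound-treated chaperonin, 25 nM final, turns over 10 uM ATP at 37°C for 30 min following a 10 min preincubation; ADP generated competes with ADP-d2 for Eu-cryptate antibody, lowering FRET.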
Potency is the fitted concentration of half-maximal effect.

SMILES	Potency
COc1ccccc1OCCOc1ccc(/C=C2\C(=N)N3N=C(S(C)(=O)=O)SC3=NC2=O)cc1	inconclusive: 44.7 µM [inhibitor, single point]
O=C1C(Cl)=C(N2CCOCC2)C(=O)N1c1ccccc1F	inactive
COc1c(C)cccc1C(=O)NC(=S)Nc1cccc2nsnc12	inconclusive: 251 µM [inhibitor, partial curve, poor fit]
O=C(O)c1cc(-c2ccc3c(c2)OCO3)nc2ccc(Br)cc12	inconclusive: 631 µM [inhibitor, partial curve, poor fit]
CN(C)c1ccc(/C=c2\sc3n(c2=O)CCCN=3)cc1	inconclusive: 14.1 µM [inhibitor, single point]
COc1cccc(CN2C(=O)C3CCCN3c3ccc(S(=O)(=O)N4CCOCC4)cc32)c1 (centres undefined)	inconclusive: 2000 µM [inhibitor, partial curve, poor fit]
CC[C@H](C)[C@H](NC(=O)c1ccccc1)C(=O)NC(CC(=O)O)c1ccc(F)cc1 (some centres undefined)	inconclusive: 17.8 µM [inhibitor, single point]
Cc1ccccc1C(=O)NC1CCN(Cc2ccccc2)CC1	inactive
CC(=O)NNC(=O)c1sc(=S)n2c1[nH]c(=O)c1sccc12	inactive
N/C(=N\OC(=O)c1ccc2c(c1)OCO2)c1cccnc1	inconclusive: 100 µM [inhibitor, single point]
Cc1nnc(SCC(=O)N/N=C/c2cn(-c3ccccc3)nc2-c2ccccc2)n1-c1ccccc1	inconclusive: 22.4 µM [inhibitor, single point]
N/C(=N\N=C/c1ccc(Br)cc1)N/N=C\c1ccc(Br)cc1	inactive
CC(=O)N1CCN(C(=O)CN2C(=O)NC(C)(c3ccc4ccccc4c3)C2=O)CC1 (centres undefined)	inconclusive: 14.1 µM [inhibitor, single point]
COc1ccc(CC(C)N2CCN(c3ccccc3OC)CC2)cc1OC (centres undefined)	inconclusive: 100 µM [inhibitor, single point]
COc1ccc(Cl)cc1Nc1nc(-c2sc(NC(=O)c3ccco3)nc2C)cs1	inconclusive: 100 µM [inhibitor, partial curve, poor fit]
CC(=O)NCCn1c(SCC(=O)NC2CCCCC2)nc2ccccc2c1=O	inactive
CC(=O)Nc1cc(C(=O)OCc2cccc([N+](=O)[O-])c2)ccc1C	inconclusive: 25.1 µM [inhibitor, partial curve, poor fit]
CCc1ccccc1N1C(=O)C2CC=CCC2C1=O (centres undefined)	inconclusive: 22.4 µM [inhibitor, single point]
O=C(CN1C(=O)COc2ccccc21)N1CCN(C2CCCCC2)CC1	inconclusive: 20 µM [inhibitor, single point]
CCOc1ccc2nc(N(CCCN(C)C)C(=O)c3ccc(S(=O)(=O)N4CCc5ccccc5C4)cc3)sc2c1	inconclusive: 100 µM [inhibitor, single point]
C=CCn1c(-c2cccc(S(=O)(=O)N(CC)CC)c2)n[nH]c1=S	inconclusive: 70.8 µM [inhibitor, single point]
CC(=O)c1sc2c(c1OC(=O)c1ccc(Cl)cc1Cl)c(=O)n(-c1ccccc1)c(=S)n2-c1ccccc1	inactive
CCc1nnc(NC(=O)CSc2nnc(-c3ccc(NS(=O)(=O)c4ccccc4)cc3)o2)s1	inactive

SMILES	Potency
O=C(CCC1CCCCC1)NC1CCCCC1	inactive
COc1ccc(NS(=O)(=O)c2ccc(NS(=O)(=O)c3cccs3)cc2)cc1	inconclusive: 12.6 µM [inhibitor, single point]
Cc1ccc(-n2cnc3scc(-c4cccs4)c3c2=O)cc1	inactive
COC(=O)C1CCCCN1C(=O)c1ccc2oc(C(C)C)nc2c1 (centres undefined)	inactive
O=C(/C=C/c1ccc(-c2ccccc2)o1)c1ccccc1	inactive
COCCCN(C(=O)c1ccco1)c1nc(-c2ccc(OC)cc2)cs1	inconclusive: 891 µM [inhibitor, partial curve, poor fit]
CCOC(=O)/C=C/CN(C(=O)OC(C)(C)C)S(=O)(=O)N1CC=CC1	inconclusive: 89.1 µM [inhibitor, single point]
Cn1c(CCNC(=O)c2ccco2)nc2cc(NC(=O)c3ccccc3)ccc21	inactive
Cn1c(=O)c2sccc2n2c(CCCC(=O)NCc3ccc4c(c3)OCO4)nnc12	inconclusive: 89.1 µM [inhibitor, single point]
Cc1ccc(-c2csc(NC(=O)c3ccno3)n2)cc1	inactive
CCOc1cc(N2CCOCC2)c(OCC)cc1NC(=O)CN1C(=O)N(C)C2(CCCCC2)C1=O	inconclusive: 112 µM [inhibitor, partial curve, poor fit]
Cc1ccccc1CS(=O)(=O)c1ccc(C(=O)N2CCC(C)CC2)cc1[N+](=O)[O-]	inconclusive: 100 µM [inhibitor, single point]
Cc1nc2ccccc2n1CC(=O)c1ccccc1	inconclusive: 22.4 µM [inhibitor, single point]
O=C(Nc1ccc(OCc2ccccc2)cc1)c1cccc([N+](=O)[O-])c1	inactive
O=[N+]([O-])c1ccccc1CN1CCN(Cc2ccccn2)CC1	inactive
CCC1CCCCN1C(=O)COc1ccc(S(=O)(=O)N2CCOCC2)cc1Cl (centres undefined)	inactive
Cc1nc2cc(NC(=O)Nc3ccccc3Cl)ccc2n1C	inconclusive: 100 µM [inhibitor, single point]
CNc1ccccc(C(=O)/C=C/c2ccccc2OC)c1=O	inconclusive: 11.2 µM [inhibitor, single point]
Cc1ccc(S(=O)(=O)N2CCc3ccccc3C2CN2C(=O)c3ccccc3C2=O)cc1 (centres undefined)	inconclusive: 12.6 µM [inhibitor, single point]
CCCOC(=S)NC(=O)c1sc2ccccc2c1Cl	inconclusive: 100 µM [inhibitor, single point]
COC(=O)N/N=C/c1cn(CCCOc2ccccc2)c2ccccc12	inactive
COC(=O)c1ccc(-c2ccc(C(c3c(C)[nH][nH]c3=O)c3c(C)[nH][nH]c3=O)o2)cc1	inactive
CCOc1ccc(NC(=O)CCNS(=O)(=O)c2cccs2)cc1	inconclusive: 70.8 µM [inhibitor, single point]

SMILES	Potency
Nc1ccc2c(c1)C(=O)C(=O)c1ccccc1-2	inconclusive: 891 µM [inhibitor, partial curve, poor fit]
CN(CC(=O)Nc1ccc(F)cc1)C(=O)CNC(=O)C1CCCCC1	inconclusive: 100 µM [inhibitor, single point]
CCc1ccccc1Nc1nc(-c2cccnc2)cs1	inactive
C=CCn1c(=NC(=O)c2cc(-c3cccs3)nc3ccccc23)sc2cc(S(N)(=O)=O)ccc21	inconclusive: 112 µM [inhibitor, partial curve, poor fit]
COc1ccc(-c2ccc(SCC(=O)Nc3nccs3)nn2)cc1OC	inconclusive: 100 µM [inhibitor, single point]
Cc1nn(-c2nnc(NC3CCCCC3)nn2)c(C)c1Br	inactive
O=C1OCCN1C(=O)[C@H]1[C@H](c2ccccc2)C(c2cccc(Cl)c2)=NN1c1ccc(Br)cc1	inconclusive: 178 µM [inhibitor, partial curve, poor fit]
O=C(NC(=O)N1CCN(c2ccc([N+](=O)[O-])cn2)CC1)c1ccccc1F	inactive
c1ccc(-c2nc(NC3CCCC3)c3ccccc3n2)cc1	inactive
COCc1c(C(=O)N/N=C(/C)c2cccs2)nnn1-c1nonc1N	inconclusive: 22.4 µM [inhibitor, single point]
COc1ccc(-n2c(SCC(=O)NCC3CCCO3)nc3c([nH]c4ccccc43)c2=O)cc1 (centres undefined)	inconclusive: 100 µM [inhibitor, single point]
O=C(Nc1cccc(Cl)c1)Nc1sccc1-c1nc2ccccc2s1	inconclusive: 50.1 µM [inhibitor, single point]
Cc1cc(F)ccc1S(=O)(=O)Nc1ccccc1C(=O)Nc1ccccc1-c1nc2ccccc2[nH]1	inconclusive: 224 µM [inhibitor, partial curve, poor fit]
Cc1ccc(C(C)C)c(OCC(=O)N/N=C/c2ccc(S(=O)(=O)O)o2)c1	inactive
COc1ccc(NC(=S)N2CCCCC2c2cccnc2)cc1 (centres undefined)	inconclusive: 22.4 µM [inhibitor, single point]
O=[N+]([O-])c1ncccc1OCc1ccc(Br)cc1F	inconclusive: 15.8 µM [inhibitor, single point]
Cc1onc(-c2c(Cl)cccc2Cl)c1NC(=O)N1CCSCC1	inconclusive: 100 µM [inhibitor, partial curve, poor fit]
Cc1ccc(O)c(C(=O)c2cnn(C(=O)COc3ccccc3C#N)c2)c1	inconclusive: 7.94 µM [inhibitor, single point]
Cc1ccccc1N1C(=O)CC(Sc2nnc(-c3ccccc3)o2)C1=O (centres undefined)	inconclusive: 158 µM [inhibitor, partial curve]
O=C(CCl)Nc1ccccc1C(=O)Nc1ccc2c(c1)OCO2	inactive
Cc1cc(C)c2nc(SCC(=O)Nc3cc(C)on3)c(C#N)cc2c1	inconclusive: 112 µM [inhibitor, partial curve, poor fit]
CCN(CC)c1ccc(/C=N/NC(=O)CNC(=O)c2cccs2)cc1	inconclusive: 89.1 µM [inhibitor, single point]
CN(CC(=O)Nc1cccc(F)c1)C(=O)c1cn(-c2ccccc2)nc1-c1ccc(Cl)cc1	inconclusive: 20 µM [inhibitor, single point]
